The values that follow come from PMC9532900.

Sequences of proteins named here, by UniProt entry; tags and fusion partners are left off. A change or cut given only in a name is not applied to a line headed by its entry.
UniProt Q16665: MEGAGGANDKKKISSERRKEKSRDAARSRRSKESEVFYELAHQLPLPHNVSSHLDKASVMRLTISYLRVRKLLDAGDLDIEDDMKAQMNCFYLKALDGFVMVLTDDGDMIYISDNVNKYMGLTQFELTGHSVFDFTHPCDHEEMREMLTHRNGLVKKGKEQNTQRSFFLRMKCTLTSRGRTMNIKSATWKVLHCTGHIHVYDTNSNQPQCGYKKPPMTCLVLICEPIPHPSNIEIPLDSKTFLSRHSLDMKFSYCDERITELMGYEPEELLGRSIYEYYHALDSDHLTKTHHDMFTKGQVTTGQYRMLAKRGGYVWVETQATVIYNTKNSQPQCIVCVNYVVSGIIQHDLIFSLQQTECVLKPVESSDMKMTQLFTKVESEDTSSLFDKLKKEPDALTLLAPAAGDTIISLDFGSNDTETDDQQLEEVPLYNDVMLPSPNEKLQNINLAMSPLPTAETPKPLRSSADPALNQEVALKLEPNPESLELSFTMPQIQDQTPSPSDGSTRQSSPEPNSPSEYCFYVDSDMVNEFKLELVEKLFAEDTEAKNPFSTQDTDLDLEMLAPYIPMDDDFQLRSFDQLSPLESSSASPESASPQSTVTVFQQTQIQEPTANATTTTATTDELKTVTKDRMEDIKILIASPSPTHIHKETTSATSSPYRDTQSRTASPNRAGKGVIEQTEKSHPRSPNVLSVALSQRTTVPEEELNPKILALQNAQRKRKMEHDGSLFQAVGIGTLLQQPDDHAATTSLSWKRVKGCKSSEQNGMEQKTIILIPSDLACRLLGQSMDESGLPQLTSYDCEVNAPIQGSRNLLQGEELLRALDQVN

The exact form of at least one protein or probe is not confirmed. At least one result comes from cells or an extract, where the contact may be indirect. For some of these results: Negatives hold for the conditions tested.

Series [1] has as its target HIF1α (UniProt Q16665). Briefly: competition with a labelled probe. The following applies: not stated, EMSA performed as described previously (ref 25), protein in an extract, protein details: HA (pHA-HIF1α).
For series [2], the target named is HIF1α (UniProt Q16665). Put plainly: EMSA. The following applies: supershift with anti-HIF1α, probe N1; not stated; EMSA performed as described previously (ref 25); protein in an extract; protein details: HA (pHA-HIF1α). On the technique in general: Mobility shift assays separate free from complexed probe on a gel.
[3] abbreviates: 30-fold unlabeled vs probe N1, label: none (competitor).
Setting [4] is: unlabeled vs probe N3, label: none (competitor).

For the sequence “AGCTTGCCCTAAAAGCTGTCTCAGA (double strand) [HIF1α-HRE mut]”, the binding result in the series with HIF1α [1] (setting [3]) and in the series with HIF1α [1] (setting [4]) was “no binding” each time.
With “TGGGAGGCAAAGTCGCTGGG (double strand) [RCAN1.1-HRE mut]”, the binding result with HIF1α [1] (setting [3]) and with HIF1α [1] (setting [4]) was “no binding” throughout.
In the case of “AGCTTGCCCTACGTGCTGTCTCAGA (double strand) [HIF1α-HRE (consensus)]”, the binding result with HIF1α [1] (30-fold unlabeled vs probe N1), in the series with HIF1α [1] (unlabeled vs probe N3) and with HIF1α [2] was “binds” throughout.
